Values from PubChem BioAssay AID1259308 (NCATS, 2017)
Purpose: 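Knock-downs that increase output of a recombinant reporter protein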 (primary screen). System: human HEK293 embryonic kidney cells stably expressing firefly luciferase (HEK-CMV-Luc2-Hygro). Knock-down reagent: single siRNA against human genes, 0.8 pmol siRNA per well. Time to read-out: 72 h. Read-out: 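Reporter luminescence and viable-cell signal on separate replicate plates, given as percent of non-targeting control and median/MAD z-scores, plus per-cell luciferase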. Direction: total luciferase, z-score and total luciferase, % of control: higher = more reporter protein produced; luciferase per cell, z-score: higher = more reporter output per viable cell; viable cells, % of control: higher = more viable cells. Active means: 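An siRNA counts as active if its total luciferase robust z-score exceeds 3; genes with two or more such siRNAs out of three were retested with fresh siRNAs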. Meaning of the calls: active = raised luciferase; inactive = no rise.
This is one part, drawn at random, of about 59,000 reagents. About 1,510 of them (2.6%) were called active. 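Calls use total luciferase alone and ignore viability, so some active siRNAs may act by altering cell number.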 Entries without a mark were called inactive. Reagents against one gene are numbered here.

| target | siRNA no. | total luciferase, z-score | total luciferase, % of control | luciferase per cell, z-score | viable cells, % of control |
| --- | --- | --- | --- | --- | --- |
| ITPR2 (inositol 1,4,5-trisphosphate receptor type 2) | 1 | -0.534 | 71.3 | -1.34 | 113 |
| ITPR2 (inositol 1,4,5-trisphosphate receptor type 2) | 2 | 0.166 | 85.2 | 0.0876 | 93 |
| ITPR2 (inositol 1,4,5-trisphosphate receptor type 2) | 3 | -0.631 | 69.3 | 0.428 | 69.2 |
| ABCA7 (ATP binding cassette subfamily A member 7) | 1 | -0.0645 | 80.6 | 0.847 | 72.1 |
| ABCA7 (ATP binding cassette subfamily A member 7) | 2 | 0.287 | 87.6 | 0.658 | 82.3 |
| ABCA7 (ATP binding cassette subfamily A member 7) | 3 | 2.55 | 133 | 1.7 | 94.6 |
| PTGES3P1 (prostaglandin E synthase 3 pseudogene 1) | 1 | -0.877 | 64.4 | -0.327 | 78.5 |
| PTGES3P1 (prostaglandin E synthase 3 pseudogene 1) | 2 | -0.24 | 77.1 | -0.497 | 98.2 |
| PTGES3P1 (prostaglandin E synthase 3 pseudogene 1) | 3 | -0.168 | 78.6 | -0.712 | 106 |
| ITPKB (inositol-trisphosphate 3-kinase B) | 1 | -0.937 | 63.2 | -0.72 | 85.4 |
| ITPKB (inositol-trisphosphate 3-kinase B) | 2 | 0.599 | 93.8 | 1.44 | 71.7 |
| ITPKB (inositol-trisphosphate 3-kinase B) | 3 | 0.16 | 85.1 | 0.253 | 88.9 |
| CPLANE2 (ciliogenesis and planar polarity effector complex subunit 2) | 1 | -1.32 | 55.7 | -0.144 | 64.6 |
| CPLANE2 (ciliogenesis and planar polarity effector complex subunit 2) | 2 | -1.85 | 45.1 | -2.95 | 109 |
| CPLANE2 (ciliogenesis and planar polarity effector complex subunit 2) | 3 | 0.644 | 94.7 | -0.183 | 111 |
| EFCAB8 (EF-hand calcium binding domain 8) | 1 | 1.12 | 104 | 0.538 | 101 |
| EFCAB8 (EF-hand calcium binding domain 8) | 2 | 0.0563 | 83 | -0.208 | 98 |
| EFCAB8 (EF-hand calcium binding domain 8) | 3 | 1.02 | 102 | 1.61 | 74.7 |
| CASS4 (Cas scaffold protein family member 4) | 1 | 0.152 | 84.9 | 1.46 | 64.5 |
| CASS4 (Cas scaffold protein family member 4) | 2 | 0.348 | 88.8 | -0.261 | 106 |
| CASS4 (Cas scaffold protein family member 4) | 3 | 1.12 | 104 | 0.493 | 102 |
| RANBP9 (RAN binding protein 9) | 1 | 0.0947 | 83.8 | 0.0992 | 91.2 |
| RANBP9 (RAN binding protein 9) | 2 | 0.0916 | 83.7 | -0.161 | 97.6 |
| RANBP9 (RAN binding protein 9) | 3 | 2.09 | 123 | 1.49 | 93.1 |
| EIF3H (eukaryotic translation initiation factor 3 subunit H) | 1 | -0.347 | 75 | 1.02 | 64 |
| EIF3H (eukaryotic translation initiation factor 3 subunit H) | 2 | -1.72 | 47.7 | -0.927 | 68.1 |
| EIF3H (eukaryotic translation initiation factor 3 subunit H) | 3 | -1.88 | 44.4 | -0.734 | 60.2 |

Laid out differently: entries from further up.
target	siRNA no.	total luciferase, z-score	total luciferase, % of control	luciferase per cell, z-score	viable cells, % of control
PTGES3P1 (prostaglandin E synthase 3 pseudogene 1)	2	-0.24	77.1	-0.497	98.2
PTGES3P1 (prostaglandin E synthase 3 pseudogene 1)	3	-0.168	78.6	-0.712	106
ITPKB (inositol-trisphosphate 3-kinase B)	1	-0.937	63.2	-0.72	85.4

The results go on:
| target | siRNA no. | total luciferase, z-score | total luciferase, % of control | luciferase per cell, z-score | viable cells, % of control |
| --- | --- | --- | --- | --- | --- |
| ZNF696 (zinc finger protein 696) | 1 | 1.19 | 106 | 0.0739 | 116 |
| ZNF696 (zinc finger protein 696) | 2 | 0.564 | 93.1 | 0.433 | 92.8 |
| ZNF696 (zinc finger protein 696) | 3 | 1.85 | 119 | 1.12 | 98.7 |
| ALG11 (ALG11 alpha-1,2-mannosyltransferase) | 1 | -0.785 | 66.3 | -1.4 | 107 |
| ALG11 (ALG11 alpha-1,2-mannosyltransferase) | 2 | -0.67 | 68.6 | -1.02 | 100 |
| ALG11 (ALG11 alpha-1,2-mannosyltransferase) | 3 | -0.179 | 78.3 | 0.396 | 78.9 |
| PERP (p53 apoptosis effector related to PMP22) | 1 | -1.2 | 58.1 | -1.1 | 86.7 |
| PERP (p53 apoptosis effector related to PMP22) | 2 | 0.952 | 101 | 1.44 | 77 |
| PERP (p53 apoptosis effector related to PMP22) | 3 | -0.0404 | 81.1 | -0.79 | 112 |
| PEPD (peptidase D) | 1 | 2.81 | 138 | 1.76 | 96.9 |
| PEPD (peptidase D) | 2 | 2.66 | 135 | 1.77 | 94.6 |
| PEPD (peptidase D) | 3 | -0.105 | 79.8 | -0.324 | 97.1 |
| MVK (mevalonate kinase) | 1 | -0.668 | 68.6 | 0.0582 | 75.5 |
| MVK (mevalonate kinase) | 2 | 0.292 | 87.7 | 0.797 | 79.4 |
| MVK (mevalonate kinase) | 3 | -0.448 | 73 | -0.865 | 102 |
| MOB2 (MOB kinase activator 2) | 1 | 0.0151 | 82.2 | -0.259 | 98.3 |
| MOB2 (MOB kinase activator 2) | 2 | 0.132 | 84.5 | 0.708 | 78.4 |
| MOB2 (MOB kinase activator 2) | 3 | 0.223 | 86.3 | 0.0101 | 96.2 |
| DNAH5 (dynein axonemal heavy chain 5) | 1 | -0.432 | 73.3 | -0.692 | 98.3 |
| DNAH5 (dynein axonemal heavy chain 5) | 2 | -1.58 | 50.4 | -1.52 | 84 |
| DNAH5 (dynein axonemal heavy chain 5) | 3 | -0.135 | 79.2 | -0.596 | 104 |
| MAL2 (mal, T cell differentiation protein 2) | 1 | 1.23 | 106 | 1.98 | 70.6 |
| MAL2 (mal, T cell differentiation protein 2) | 2 | 5.62 (active) | 194 | 3.55 | 84.9 |
| MAL2 (mal, T cell differentiation protein 2) | 3 | -0.741 | 67.2 | -1.19 | 103 |
| GRM8 (glutamate metabotropic receptor 8) | 1 | -0.675 | 68.5 | -0.338 | 83.6 |
| GRM8 (glutamate metabotropic receptor 8) | 2 | -0.462 | 72.7 | -0.359 | 89.3 |
| GRM8 (glutamate metabotropic receptor 8) | 3 | -0.177 | 78.4 | -0.153 | 91.2 |
| KNOP1 (lysine rich nucleolar protein 1) | 1 | 1.53 | 112 | 2.19 | 70.5 |
| KNOP1 (lysine rich nucleolar protein 1) | 2 | -1.03 | 61.4 | -0.681 | 82.1 |
| KNOP1 (lysine rich nucleolar protein 1) | 3 | -0.463 | 72.7 | -0.449 | 91.4 |
